From patent US8685976B2, “Cell adhesion promoting agent and method of promoting cell adhesion” (Kyoto University, priority 2008, dated 2014)

Test: Isothermal titration calorimetry (ITC)
Type: binding
Conditions: 100 mM NaCl, 25° C.; for n (no. of adhesamine per GAGs): 50 mM phosphate buffer (pH 6.0), 1% DMSO

Substance | n (no. of adhesamine per GAGs) | n (no. of adhesamine per oligosaccharides) (50 mM phosphate buffer, 1% (v/v) DMSO)
Heparin | 20.34 ± 2.53 | 20.34 ± 2.53
Heparan sulfate | 6.38 ± 0.49 | 
Keratan sulfate | 33.28 ± 3.2 | 
